Reference: PubChem BioAssay AID1671195 (Yale University, 2021)
Screen: 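Genes whose knockdown alters LDL uptake in liver cancer cells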 (primary screen). System: human Huh7 hepatoma cells. Knock-down reagent: siRNA pool against human genes, 18 nM. Duration: about 2 to 2.5 days of knockdown, then 8 h LDL uptake. Challenge: DiI-labelled LDL at 30 µg/ml for 8 h, in lipoprotein-deficient serum medium. Measured: 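Fluorescent LDL signal imaged in cells, scaled to the plate median, robust z-score for each replicate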. Scale: robust z-score: higher = more LDL uptake after knockdown. Rule for the call: 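a gene counts as active if at least two replicate z-scores exceed ±2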.
In all, the deposit lists about 22,000 reagents; shown is a part drawn at random. About 1,510 of them (6.9%) count as active. 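Active includes knockdowns raising or lowering LDL uptake; positive z-scores mean more uptake, negative mean less.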 Reagent sequences are not shown.

Which result is listed for NDUFB2 (NADH:ubiquinone oxidoreductase subunit B2)?
robust z-score, replicate 1: 1.37; robust z-score, replicate 2: 1.05; robust z-score, replicate 3: 0.746; Outcome: inactive

For TIPRL (TOR signaling pathway regulator), what does the deposit list?
robust z-score, replicate 1: -0.466; robust z-score, replicate 2: -0.518; robust z-score, replicate 3: -0.468; Outcome: inactive

How did the screen score USP38 (ubiquitin specific peptidase 38)?
robust z-score, replicate 1: 0.925; robust z-score, replicate 2: 0.319; robust z-score, replicate 3: 1.36; Outcome: inactive

What did the screen give for SLC15A4?
robust z-score, replicate 1: 0.486; robust z-score, replicate 2: 0.671; robust z-score, replicate 3: 0.699; Outcome: inactive

Which result is listed for HAND2 (heart and neural crest derivatives expressed 2)?
robust z-score, replicate 1: -0.959; robust z-score, replicate 2: -1.63; robust z-score, replicate 3: -1.18; Outcome: inactive

How did the screen score LOC392542 (retired record)?
robust z-score, replicate 1: -0.594; robust z-score, replicate 2: -1.33; robust z-score, replicate 3: -1.14; Outcome: inactive

For CLSTN2 (calsyntenin 2), what does the deposit list?
robust z-score, replicate 1: 0.178; robust z-score, replicate 2: -0.248; robust z-score, replicate 3: -0.626; Outcome: inactive

What did the screen give for PTPRR (protein tyrosine phosphatase receptor type R)?
robust z-score, replicate 1: -2.2; robust z-score, replicate 2: -1.97; robust z-score, replicate 3: -2.39; Outcome: active

What did the screen give for STT3B (STT3 oligosaccharyltransferase complex catalytic subunit B)?
robust z-score, replicate 1: -0.52; robust z-score, replicate 2: -0.108; robust z-score, replicate 3: -0.0618; Outcome: inactive

What is on record for ZNF780A (zinc finger protein 780A)?
robust z-score, replicate 1: -0.159; robust z-score, replicate 2: -0.18; robust z-score, replicate 3: 0.157; Outcome: inactive

For LCNL1 (lipocalin like 1), what does the deposit list?
robust z-score, replicate 1: 0.11; robust z-score, replicate 2: -0.168; robust z-score, replicate 3: -0.112; Outcome: inactive

With NIPSNAP1 (nipsnap homolog 1), how do the results read?
robust z-score, replicate 1: -0.162; robust z-score, replicate 2: 0.0119; robust z-score, replicate 3: 0.00216; Outcome: inactive

Reagents listed above called active, once more:
PTPRR (protein tyrosine phosphatase receptor type R) → robust z-score, replicate 1 = -2.2; robust z-score, replicate 2 = -1.97; robust z-score, replicate 3 = -2.39; Outcome = active
